{"source": "patent US20220338473A1", "about": "“USE OF BENZYL ALCOHOL AS A HERBICIDE” (INNOVI, priority 2019, published 2022)", "system": "Barley and rapeseed seeds", "test": "Intercrop herbicide activity: seeding period after soil treatment", "format": "in vivo"}
{"smiles": "OCc1ccccc1", "note": "[benzyl alcohol]", "values": [{"measurement": "Days of waiting before seeding (seeding period when 70% of the seeds sown germinate)", "setting": "potting soil treated with 100 L/Ha pure benzyl alcohol", "result": 5, "unit": "days"}, {"measurement": "Days of waiting before seeding (seeding period when 70% of the seeds sown germinate)", "setting": "potting soil treated with 200 L/Ha pure benzyl alcohol", "result": 7, "unit": "days"}, {"measurement": "Days of waiting before seeding (seeding period when 70% of the seeds sown germinate)", "setting": "potting soil treated with 300 L/Ha pure benzyl alcohol", "result": 15, "unit": "days"}, {"measurement": "Days of waiting before seeding (seeding period when 70% of the seeds sown germinate)", "setting": "potting soil treated with less than 100 L/Ha pure benzyl alcohol", "result": 5, "unit": "days"}, {"measurement": "Days of waiting before seeding (seeding period when 70% of the seeds sown germinate)", "setting": "potting soil treated with more than 300 L/Ha pure benzyl alcohol", "result": 15, "unit": "days"}]}
